Drawing on patent publication US20190382474A1, this text covers binding for two molecules.

For the assay, the target named is recombinant human IL-27 (human) (UniProt Q14213). The assay can be described thus: SPR single cycle kinetics, 1:1 model.

Where a chain is given by its changes, count along the chain named. These are yes or no findings as the source states them, for the method shown. Some binding calls cover weakened binding; strength is not graded here.

B1: Ab7.4 (antibody, human IgG1, kappa, V domains shown)
VH: EVKLVESGGGLVQPGGSLRLSCAASGFTFTSYSMSWVRQAPGKGLEWVAYISYDGGSAYYPDTVKGRFTISRDNSKKTLYLQMSSLKSEDTAMYYCARHGDYDDDDAMDYWGQGTSVTVSS
VL: DIQMTQSPSSLSASVGDRVTITCRASENIYSYLAWYQQKQGKAPKLLVYNAETLTEGVPSRFSGSGSGTDFTLTISSLQPEDFANYYCQHHYGTPLTFGQGTKLDIKR
Turning to B1, the binding result is on record as “binds”.

B2: Ab7.5 (antibody, human IgG1, kappa, V domains shown)
VH: B1 VH
VL: B1 VL with Q40P, D105E
On to B2, for which the binding result is “binds”.
